# According to the supplement of paper PMC6411743:
# ± gives the standard deviation of the averaged measurements. The list shows a part of the results, in another mix than the full data.
# Assays:
# Test in all cases: NP40-soluble protein abundance relative to vehicle (solubility fold change) (ratio); higher = more soluble protein in presence of AMP-PNP
# [1] = target: T1, UniProt Q9NQ86-4|E9PBG3 and related entries
# T1 sequence (whole entry): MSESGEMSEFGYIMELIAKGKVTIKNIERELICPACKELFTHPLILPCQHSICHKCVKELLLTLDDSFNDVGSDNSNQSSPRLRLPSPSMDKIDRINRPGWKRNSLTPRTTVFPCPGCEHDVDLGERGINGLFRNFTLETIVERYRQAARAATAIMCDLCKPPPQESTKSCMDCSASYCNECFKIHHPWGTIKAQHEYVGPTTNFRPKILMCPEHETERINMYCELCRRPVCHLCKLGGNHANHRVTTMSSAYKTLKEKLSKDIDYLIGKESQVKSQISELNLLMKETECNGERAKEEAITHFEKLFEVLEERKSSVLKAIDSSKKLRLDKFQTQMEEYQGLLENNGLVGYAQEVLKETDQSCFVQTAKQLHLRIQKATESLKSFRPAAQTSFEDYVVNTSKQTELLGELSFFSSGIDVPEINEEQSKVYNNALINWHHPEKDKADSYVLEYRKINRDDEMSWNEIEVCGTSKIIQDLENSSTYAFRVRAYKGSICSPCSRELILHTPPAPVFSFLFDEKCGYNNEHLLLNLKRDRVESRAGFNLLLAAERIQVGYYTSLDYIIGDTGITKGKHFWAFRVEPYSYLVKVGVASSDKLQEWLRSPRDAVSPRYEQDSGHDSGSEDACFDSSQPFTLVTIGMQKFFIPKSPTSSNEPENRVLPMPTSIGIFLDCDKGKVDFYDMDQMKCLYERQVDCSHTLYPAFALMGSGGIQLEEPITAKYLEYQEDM
# Outline: (§1)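 Jurkat crude lysate (Dounce-homogenised) was treated with eight concentrations from 0.1 to 10 mM for 10 min at room temperature, then 3 min at 37 °C. It was solubilised with 0.8% NP40 and benzonase (60 min, 4 °C) and ultracentrifuged, and the supernatant was TMT-labelled for LC-MS/MS. Intensities were vsn-normalised, and the value is the fold change against the NP40-processed vehicle per replicate, from three independent experiments.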
# [2] = target: T2, UniProt Q9NQC7 and related entries
# T2 sequence (whole entry): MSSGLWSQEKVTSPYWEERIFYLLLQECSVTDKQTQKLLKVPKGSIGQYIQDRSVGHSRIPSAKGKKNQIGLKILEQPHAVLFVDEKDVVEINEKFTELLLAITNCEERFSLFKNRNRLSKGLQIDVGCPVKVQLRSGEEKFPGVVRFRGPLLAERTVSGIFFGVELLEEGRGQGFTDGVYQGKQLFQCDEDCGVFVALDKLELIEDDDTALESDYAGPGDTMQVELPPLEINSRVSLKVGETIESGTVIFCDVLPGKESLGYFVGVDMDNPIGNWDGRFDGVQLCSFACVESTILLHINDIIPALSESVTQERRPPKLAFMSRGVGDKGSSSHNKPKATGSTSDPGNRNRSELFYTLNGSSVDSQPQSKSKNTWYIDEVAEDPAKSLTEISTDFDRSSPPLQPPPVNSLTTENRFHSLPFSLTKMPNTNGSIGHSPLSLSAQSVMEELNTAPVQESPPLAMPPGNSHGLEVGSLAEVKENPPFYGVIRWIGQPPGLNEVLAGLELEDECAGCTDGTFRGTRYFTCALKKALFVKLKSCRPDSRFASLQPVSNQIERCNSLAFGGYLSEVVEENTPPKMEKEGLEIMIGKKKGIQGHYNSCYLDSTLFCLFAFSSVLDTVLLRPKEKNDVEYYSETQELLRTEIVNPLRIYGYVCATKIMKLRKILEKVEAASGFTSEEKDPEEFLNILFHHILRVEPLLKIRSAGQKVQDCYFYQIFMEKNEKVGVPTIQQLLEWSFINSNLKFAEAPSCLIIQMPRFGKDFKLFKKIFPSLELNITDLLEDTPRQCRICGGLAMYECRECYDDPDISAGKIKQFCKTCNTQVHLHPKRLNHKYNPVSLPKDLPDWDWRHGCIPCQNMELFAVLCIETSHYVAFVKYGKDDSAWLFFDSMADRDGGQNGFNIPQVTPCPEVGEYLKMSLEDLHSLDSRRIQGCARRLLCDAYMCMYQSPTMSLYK
# Outline: as §1
# [3] = target: T3, UniProt Q9NRL3 and related entries
# T3 sequence (whole entry): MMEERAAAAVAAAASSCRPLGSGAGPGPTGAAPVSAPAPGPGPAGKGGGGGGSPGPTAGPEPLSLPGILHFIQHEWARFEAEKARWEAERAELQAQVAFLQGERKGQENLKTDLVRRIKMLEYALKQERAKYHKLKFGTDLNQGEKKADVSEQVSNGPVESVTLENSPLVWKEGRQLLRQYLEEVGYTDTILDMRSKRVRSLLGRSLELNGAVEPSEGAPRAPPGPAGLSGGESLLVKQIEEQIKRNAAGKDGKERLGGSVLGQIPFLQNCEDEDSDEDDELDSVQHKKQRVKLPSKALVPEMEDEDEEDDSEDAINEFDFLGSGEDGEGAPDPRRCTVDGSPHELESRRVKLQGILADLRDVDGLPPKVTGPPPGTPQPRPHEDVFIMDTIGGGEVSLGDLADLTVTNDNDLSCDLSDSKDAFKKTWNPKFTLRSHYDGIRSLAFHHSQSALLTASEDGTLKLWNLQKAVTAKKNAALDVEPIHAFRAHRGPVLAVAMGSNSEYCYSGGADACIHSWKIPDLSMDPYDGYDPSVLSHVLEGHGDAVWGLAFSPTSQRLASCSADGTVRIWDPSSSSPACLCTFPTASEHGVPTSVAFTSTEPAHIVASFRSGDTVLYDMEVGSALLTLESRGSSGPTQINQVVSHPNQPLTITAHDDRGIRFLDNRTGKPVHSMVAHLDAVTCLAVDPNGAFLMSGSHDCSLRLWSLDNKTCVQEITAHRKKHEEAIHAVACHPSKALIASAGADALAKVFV
# Outline: as §1
# [4] = target: T4, UniProt Q9NSI8 and related entries
# T4 sequence (whole entry): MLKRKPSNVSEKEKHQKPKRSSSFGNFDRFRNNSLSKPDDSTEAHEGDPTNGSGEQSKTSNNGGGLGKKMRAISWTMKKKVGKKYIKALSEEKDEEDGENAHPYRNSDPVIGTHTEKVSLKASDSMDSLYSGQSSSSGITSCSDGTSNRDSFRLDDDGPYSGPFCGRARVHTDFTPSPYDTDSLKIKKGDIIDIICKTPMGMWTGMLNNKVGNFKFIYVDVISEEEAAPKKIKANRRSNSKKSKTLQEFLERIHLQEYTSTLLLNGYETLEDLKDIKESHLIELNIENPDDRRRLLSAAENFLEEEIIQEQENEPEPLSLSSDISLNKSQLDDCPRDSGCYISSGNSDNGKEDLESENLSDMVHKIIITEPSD
# Outline: as §1
# UniProt Q9NUS5 = target: T5, UniProt Q9NUS5
# T5 sequence (whole entry): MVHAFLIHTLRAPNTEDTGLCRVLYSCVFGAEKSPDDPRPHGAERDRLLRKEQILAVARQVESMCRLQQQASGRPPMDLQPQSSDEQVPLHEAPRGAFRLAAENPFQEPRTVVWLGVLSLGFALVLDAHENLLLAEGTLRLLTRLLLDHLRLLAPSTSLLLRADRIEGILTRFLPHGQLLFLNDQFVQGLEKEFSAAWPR
# Outline: as §1
smiles,measurement,setting,value
Nc1ncnc2c1ncn2[C@@H]1O[C@H](COP(=O)(O)OP(=O)(O)NP(=O)(O)O)[C@@H](O)[C@H]1O [adenylyl imidodiphosphate],NP40-soluble protein abundance,[1]; concentration: 6mM,0.998 ± 0.017
same,NP40-soluble protein abundance,[1]; concentration: 8mM,1 ± 0.044
same,NP40-soluble protein abundance,[1]; concentration: 10mM,1.01 ± 0.023
same,NP40-soluble protein abundance,[2]; concentration: 1mM,1.02 ± 0.037
same,NP40-soluble protein abundance,[2]; concentration: 2mM,1.06 ± 0.07
same,NP40-soluble protein abundance,[2]; concentration: 4mM,1.04 ± 0.023
same,NP40-soluble protein abundance,[2]; concentration: 6mM,1.03 ± 0.053
same,NP40-soluble protein abundance,[2]; concentration: 8mM,1.03 ± 0.024
same,NP40-soluble protein abundance,[2]; concentration: 10mM,1.05 ± 0.064
same,NP40-soluble protein abundance,[3]; concentration: 1mM,0.983 ± 0.056
same,NP40-soluble protein abundance,[3]; concentration: 2mM,1.01 ± 0.042
same,NP40-soluble protein abundance,[3]; concentration: 4mM,1 ± 0.058
same,NP40-soluble protein abundance,[3]; concentration: 6mM,1.01 ± 0.08
same,NP40-soluble protein abundance,[3]; concentration: 8mM,0.978 ± 0.042
same,NP40-soluble protein abundance,[3]; concentration: 10mM,0.981 ± 0.059
same,NP40-soluble protein abundance,[4]; concentration: 1mM,1.02 ± 0.033
same,NP40-soluble protein abundance,[4]; concentration: 2mM,1.03 ± 0.022
same,NP40-soluble protein abundance,[4]; concentration: 4mM,1.03 ± 0.036
same,NP40-soluble protein abundance,[4]; concentration: 6mM,1.04 ± 0.062
same,NP40-soluble protein abundance,[4]; concentration: 8mM,1.05 ± 0.049
same,NP40-soluble protein abundance,[4]; concentration: 10mM,1.04 ± 0.026
same,NP40-soluble protein abundance,UniProt Q9NUS5; concentration: 1mM,0.96 ± 0.016
same,NP40-soluble protein abundance,UniProt Q9NUS5; concentration: 2mM,0.936 ± 0.051
same,NP40-soluble protein abundance,UniProt Q9NUS5; concentration: 4mM,0.963 ± 0.02
same,NP40-soluble protein abundance,UniProt Q9NUS5; concentration: 6mM,0.948 ± 0.012

# Rewritten tab-delimited: entries from further up.
smiles	measurement	setting	value
Nc1ncnc2c1ncn2[C@@H]1O[C@H](COP(=O)(O)OP(=O)(O)NP(=O)(O)O)[C@@H](O)[C@H]1O [adenylyl imidodiphosphate]	NP40-soluble protein abundance	[1]; concentration: 8mM	1 ± 0.044
same	NP40-soluble protein abundance	[1]; concentration: 10mM	1.01 ± 0.023
same	NP40-soluble protein abundance	[2]; concentration: 6mM	1.03 ± 0.053
same	NP40-soluble protein abundance	[2]; concentration: 10mM	1.05 ± 0.064
same	NP40-soluble protein abundance	[3]; concentration: 2mM	1.01 ± 0.042
same	NP40-soluble protein abundance	[3]; concentration: 4mM	1 ± 0.058
same	NP40-soluble protein abundance	UniProt Q9NUS5; concentration: 2mM	0.936 ± 0.051
